Results are given in words; binding and its absence hold for the method and conditions named. In cells and extracts the contact can be indirect. Here binding means that the protein was enriched with, or labelled near, the bait; the list need not be complete.

Amino acid sequences for entries named in this document (tags omitted).
UniProt Q16665, whole entry: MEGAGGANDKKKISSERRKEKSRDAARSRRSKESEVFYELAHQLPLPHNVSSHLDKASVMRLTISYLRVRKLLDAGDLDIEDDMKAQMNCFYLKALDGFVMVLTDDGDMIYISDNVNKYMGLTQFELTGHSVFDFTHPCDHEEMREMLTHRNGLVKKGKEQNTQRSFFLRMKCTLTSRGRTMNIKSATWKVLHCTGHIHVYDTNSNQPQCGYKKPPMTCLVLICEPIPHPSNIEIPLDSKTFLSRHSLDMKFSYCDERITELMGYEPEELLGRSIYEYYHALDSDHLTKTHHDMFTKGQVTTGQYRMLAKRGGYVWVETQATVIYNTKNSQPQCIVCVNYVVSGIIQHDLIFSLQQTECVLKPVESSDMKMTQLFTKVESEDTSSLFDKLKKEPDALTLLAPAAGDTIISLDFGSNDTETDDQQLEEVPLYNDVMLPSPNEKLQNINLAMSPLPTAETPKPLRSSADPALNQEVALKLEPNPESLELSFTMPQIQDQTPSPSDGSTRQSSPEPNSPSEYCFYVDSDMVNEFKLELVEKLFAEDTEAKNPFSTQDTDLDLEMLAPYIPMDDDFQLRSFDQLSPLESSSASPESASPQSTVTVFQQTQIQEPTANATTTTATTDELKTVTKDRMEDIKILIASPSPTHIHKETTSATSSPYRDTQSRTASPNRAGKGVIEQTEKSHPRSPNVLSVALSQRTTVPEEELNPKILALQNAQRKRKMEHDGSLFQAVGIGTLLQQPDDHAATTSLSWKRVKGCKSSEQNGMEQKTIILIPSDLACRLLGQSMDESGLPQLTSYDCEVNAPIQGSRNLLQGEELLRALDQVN

The assay has as its target HIF-1α fused to the biotin ligase BioID2 (UniProt Q16665). Description: proximity labelling.

B1: UBFD1 (endogenous) (protein, UniProt O14562 1-309)
chain: MAAAGAPDGMEEPGMDTEAETVATEAPARPVNCLEAEAAAGAAAEDSGAARGSLQPAPAQPPGDPAAQASVSNGEDAGGGAGRELVDLKIIWNKTKHDVKFPLDSTGSELKQKIHSITGLPPAMQKVMYKGLVPEDKTLREIKVTSGAKIMVVGSTINDVLAVNTPKDAAQQDAKAEENKKEPLCRQKQHRKVLDKGKPEDVMPSVKGAQERLPTVPLSGMYNKSGGKVRLTFKLEQDQLWIGTKERTEKLPMGSIKNVVSEPIEGHEDYHMMAFQLGPTEASYYWVYWVPTQYVDAIKDTVLGKWQYF
With B1, the binding result is “binds”.

The record behind these values is doi:10.1101/2025.06.18.660436.
